{"source": "paper PMC6382696", "about": "“Drug Repurposing: The Anthelmintics Niclosamide and Nitazoxanide Are Potent TMEM16A Antagonists That Fully Bronchodilate Airways” (Frontiers in Pharmacology, 2019)", "key": {"human bronchial rings": {"test_system": "human bronchial rings", "experiment": "Wire myograph bronchodilation of histamine pre-contracted human bronchial rings (Biopta)", "settings": "average", "excerpt": "Details of bronchodilator studies shown in Figure 5H, 6 and Supplementary Figure 40 are provided below as part of the end assay report on Study CUR011 by Lee Christie (Biopta). Donors with any of the following conditions were excluded from the study: asthma, COPD, emphysema, lung cancer, cystic fibrosis, pulmonary fibrosis, pulmonary hypertension, pneumonia. Donors were also excluded if they had smoked in the past 12 months. Non-transplantable lung tissue was acquired from organ donors post mortem. Any macroscopically diseased/necrotic tissue was rejected. […] Human airway rings were set up under isometric conditions on a wire myograph in order to examine the influence of the test articles on bronchodilation. In order to assess tissue viability, the airways were challenged with carbachol (10 μM) and then isoprenaline (10 μM) to assess their constriction and relaxation responses, respectively. […] Viable airways were pre-constricted with histamine (10 μM), then exposed to one of the following cumulative concentration response curves (CCRCs): positive control, vehicle (water, volume matched to positive control), test article, vehicle (DMSO concentration matched to test articles). At the end of each CCRC, theophylline (2.2 mM) was added to induce maximal relaxation of the tissue. […]"}, "mouse tracheal rings": {"test_system": "mouse tracheal rings", "experiment": "Wire myograph bronchodilation of carbachol pre-contracted mouse tracheal rings", "description": "The trachea from C57 BL/6 mice was dissected and collected in PBS with Mg^2+ and Ca^2+. After further trimming, two 2 mm sections (rings) per trachea were then placed in DMEM media containing PSG/HEPES/AA/NaPyr for 1 h and used immediately or maintained overnight at 37°C in a humidified incubator with 5% CO2. Rings were then mounted into chambers of DMT wire myograph containing L-shaped mounting pins with 2–3 mN of force applied to secure rings on the pins and the rings were allowed to equilibrate for 25–30 min in a physiological saline buffer (PSS, 130 mM NaCl, 4.7 mM KCl, 1.2 mM MgS04, 14.9 mM NaHCO3, 1.2 mM KH2PO4, 0.026 mM EDTA, 1.6 mM CaCl2, 5.5 mM Dextrose). Throughout the experiment, rings were maintained at physiological temperature and gas conditions by heating buffer reservoir and chamber to 37°C and bubbling a 95% O2, 5% CO2 gas mixture into chamber.\nAfter equilibration, a standard tissue “Wake-Up” procedure was applied by altering tension and then treatment with elevated potassium as follows: 3 mN tension was applied for 5–10 min, then another 2–3 mN tension to total of 5.5 mN and then to 7–8 mN for another 5 min; the tissue pre-tension was then set to 5 mN and allowed to equilibrate for 5–10 min followed by the removal of the PSS buffer and addition of KPSS (60 mM KCl, 74.7 mM NaCl in PSS solution), with force changes monitored until they reached a plateau. […]"}}, "note": "Several values for one entry are separate records, joined by “and”; a condition that tells them apart may be missing. Equal entries are not always repeated.", "data": [{"smiles": "COc1cc([N+](=O)[O-])ccc1NC(=O)c1cc(Cl)c2ccccc2c1O", "note": "[Cpd 4]", "values": [{"measurement": "Hill Slope, relaxation of histamine pre-contracted human bronchial rings", "setting": "human bronchial rings", "result": 4.0}]}, {"smiles": "CC(C)NCC(O)c1ccc(O)c(O)c1", "note": "(stereo not drawn) [Isoproterenol, isoproterenol]", "values": [{"measurement": "Hill Slope, individual experiments", "setting": "mouse tracheal rings; EC75 carbachol, Exp 1-3", "result": "0.8 and 0.9 (2×)"}, {"measurement": "Hill Slope, relaxation of mouse tracheal rings", "setting": "mouse tracheal rings; pre-contracted with EC75 carbachol, average", "result": 0.9}]}]}
